In patent US10564164B2, “Fluorescent probe, singlet oxygen detection agent, and singlet oxygen detection method” (Osaka University, priority 2014, dated 2020):
For at least one compound, name, drawing or mass did not settle the structure.

Test system: HeLa cells
Experiment: Selectivity of photosensitizer: intracellular singlet oxygen detection with Si-DMA
Format: cell-based
Protocol: Subsequently, a quick protocol provided by Molecular Probe® for introducing CellROX Green was followed. Using diluted Si-DMA and Si-Me, incubation was performed for 30 minutes to two hours by an experiment. To introduce a photosensitizer, 150 μg/mL of 5-aminolevulinic acid (5-ALA) or 10 LM TMPyP4 were incubated for four hours and 24 hours, respectively. As a result, as previously reported, the conversion of 5-ALA into protoporphyrin IX (PpIX) in the mitochondria was confirmed by the fluorescence luminescence of PpIX.
A KillerRed vector was expressed in accordance with a general Lipofectamine® 2000 (Invitrogen) protocol. More specifically, 2×10^5 Hela cells were subcultured in a 35-mm glass bottom dish. The cells reached about 50% confluent in the next day.
Subsequently, a mixed solution of Lipofectamine reagent and DNA vector was obtained by mixing 6 μL Lipofectamine® 2000 with 7 μL pKillerRed-dMitovector ([…], Evrogen, catalog No. FP964) in an Opti-MEM solution (Gibco). Thereafter, the resulting solution was incubated for 20 minutes at room temperature. […] The expression of KillerRed was confirmed by monitoring KillerRed fluorescence using a wide-view microscope. […]
Further, in this Experiment Example, 60-second light irradiation was performed using three kinds of photosensitizers, and an average number of pseudo colors appeared in the photo and an increase thereof were measured. […]

C=CC1=C(C)c2cc3[nH]c(cc4nc(cc5[nH]c(cc1n2)c(C)c5CCC(=O)O)C(CCC(=O)O)=C4C)c(C)c3C=C [PpIX, protoporphyrin IX]
average number of pseudo colors during light irradiation (Si-DMA fluorescence) (HeLa cells, Si-DMA probe, 60-second light irradiation, photosensitizer as labelled): increased
fluorescence intensity depending on the incubation time (PpIX biosynthesized in the cells by 5-ALA incubation): maximally increased by four-hour incubation
